# In PubChem BioAssay AID504444 (National Center for Advancing Translational Sciences (NCATS), 2011):
# Screen size: about 360,000 compounds; about 7,500 (2.1%) were called active. The shares of active, inactive and inconclusive entries below differ from those in the screen. Calls come from the whole dose curve; as a rule, active = well fitted inhibition curve with a large enough effect; inconclusive = small, poorly fitted or top-dose-only effect, or effect the other way; inactive = flat fitted curve, though single readings scatter. A potency beside an inconclusive call is a rough fit, not a confirmed value.
# Experiment: Nrf2 qHTS screen for inhibitors; note: nearly all actives have a fitted effect of over 60% in size
# Conditions: A549 ARE-Fluc reporter, luciferase luminescence, 18-24 h; activity change, negative = inhibition: at 46 µM (top of the series)
# Method in brief: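 Quantitative HTS in A549 cells stably bearing an antioxidant response element-firefly luciferase construct. Inhibition of Nrf2-driven transcription was scored by luminescence after 18-24 h of compound exposure at 37 °C.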
# % is set by controls: 0 for no effect and ±100 for the full control effect; potency is the fitted concentration of half-maximal effect.
Compound,Potency,"activity change, negative = inhibition"
Cc1cc([N+](=O)[O-])ccc1N=Nc1c(N)[nH]n(-c2ccccc2)c1=O,"inconclusive: 3.66 µM [activator, single point]",
CN(C)c1ccc(O)c2c1CC1CC3[C@@H](N(C)C)C(=O)C(C(N)=O)C(=O)[C@]3(O)C(=O)C1C2=O (some centres not stated),"inconclusive: 29.1 µM [falling, single point]",
COC(=O)[C@]1(C)N[C@H](c2ccc(-c3ccc(Cl)c(Cl)c3)cc2)[C@@H]2C(=O)N(C)C(=O)[C@@H]21,"inconclusive: 13 µM [falling, partial curve, poor fit]",
COc1cccc(NC(=O)c2cc3ccccc3o/c2=N\O)c1,"inconclusive: 14.6 µM [activator, partial curve]",
Cc1ccc2nc(-c3ccc(Cl)c(NC(=O)COc4ccc([N+](=O)[O-])cc4)c3)oc2c1,"inconclusive: 8.2 µM [activator, partial curve]",
CCOc1ccc(C(=O)SC2=NCCS2)cc1,"inconclusive: 32.6 µM [falling, partial curve, poor fit]",
CCOC(=O)c1c(C)oc2ccc(N(C(=O)c3ccncc3)S(=O)(=O)c3ccc(F)cc3C)cc12,"inconclusive: 29.1 µM [falling, single point]",
COc1ccccc1CNC(=O)[C@H](C)N1C(=O)N2CCc3c([nH]c4ccccc34)[C@@]2(C)C1=O,active: 23.1 µM,
COc1cccc(NC(=O)CSc2nnc(-c3ccc(C)cc3)o2)c1,,inactive: 0.339%
O=C(Nc1nnc(CCN2CCOCC2)s1)c1ccccc1,"inconclusive: 8.2 µM [activator, partial curve, poor fit]",
N#Cc1nc(-c2ccco2)oc1N1CCCC1,,inactive: -10.5%
O=C(Cn1c(=O)n(-c2ccccc2)c(=O)c2c3c(sc21)CCC3)c1ccc(Br)cc1,"inconclusive: 5.17 µM [activator, full curve]",
CCOc1ccc(NC(=O)C2CC3CCC2C3)cc1 (configuration not stated),"inconclusive: 25.9 µM [activator, single point]",
C/C=C/Cn1c(N(C)Cc2ccccc2)nc2c1c(=O)[nH]c(=O)n2C,"inconclusive: 18.4 µM [falling, partial curve, poor fit]",
O=S(=O)(c1c(F)cccc1F)N1CCN(S(=O)(=O)c2c(F)cccc2F)CC1,"inconclusive: 20.6 µM [activator, partial curve]",
COC(=O)c1ccccc1NC(=O)c1cc(OC)cc(OC)c1,"inconclusive: 14.6 µM [falling, partial curve, poor fit]",
CN(CC(=O)Nc1ccc(Cl)c(C(F)(F)F)c1)C(=O)c1ccc(N2CCOCC2)c([N+](=O)[O-])c1,"inconclusive: 29.1 µM [falling, single point]",
Cc1ccc(NC(=O)c2c([N+](=O)[O-])cnn2C)cc1C,"inconclusive: 29.1 µM [activator, single point]",
Cc1ccc(-n2nnnc2SCn2nnc3ccccc3c2=O)c(C)c1,active: 9.2 µM,
CNc1ccc(Br)cc(C(=O)/C=C/c2cccc(Cl)c2Cl)c1=O,,inactive: 0.0025%
COc1cc(OC)c(OC)cc1CNC(=O)c1cccc(S(=O)(=O)N2CCc3ccccc3C2)c1,active: 7.31 µM,
COC(=O)c1ccccc1N1C(=O)C2C(C1=O)C1C=CC2C12CC2 (configuration not stated),"inconclusive: 0.0651 µM [falling, full curve, poor fit]",
Cc1ccc(C)c(CN2CCCN(Cc3ccccc3C)S2(=O)=O)c1,,inactive: 5.6%

# Pulled by compound from the entries so far, 3 records:
Compound,Potency,"activity change, negative = inhibition"
Cc1ccc(C)c(CN2CCCN(Cc3ccccc3C)S2(=O)=O)c1,,inactive: 5.6%
COC(=O)c1ccccc1NC(=O)c1cc(OC)cc(OC)c1,"inconclusive: 14.6 µM [falling, partial curve, poor fit]",
COc1cccc(NC(=O)CSc2nnc(-c3ccc(C)cc3)o2)c1,,inactive: 0.339%

# More compounds.

Compound,Potency,"activity change, negative = inhibition"
CCc1ccccc1Nc1nc(N)nc(COC(=O)CCC(=O)c2ccc(F)cc2)n1,"inconclusive: 16.4 µM [activator, single point]",
NC(=O)c1c(/N=C/c2cccnc2)sc2c1CCCC2,"inconclusive: 18.4 µM [activator, partial curve, poor fit]",
Cc1ccc(Cn2cc(C(=O)NN)c(=O)c3ccc(F)cc32)cc1,"inconclusive: 20.6 µM [falling, partial curve]",
COc1ccc(-n2c(=O)c3c4c(sc3n(CC(=O)NCc3ccco3)c2=O)CCC4)c(OC)c1,"inconclusive: 3.26 µM [falling, partial curve]",
COc1cc2c(C#CCCCO)c(-c3ccsc3)oc(=O)c2cc1OC,"inconclusive: 9.2 µM [falling, partial curve]",
CN1CCN(C(=O)c2ccc(Cl)c(S(=O)(=O)N3CCCCCC3)c2)CC1,"inconclusive: 9.2 µM [falling, partial curve]",
OCCCNc1nccc(-c2cc(Nc3cccc(Cl)c3)ncn2)n1,active: 2.06 µM,
Clc1ccc(-c2c[n+](Cc3ccc(Cl)cc3Cl)c3n2CCCCC3)cc1,"inconclusive: 14.6 µM [falling, partial curve, poor fit]",
COc1ccc(CCn2c(-c3ccco3)nc3ccccc3c2=O)cc1OC,"inconclusive: 18.4 µM [falling, single point]",
COc1ccccc1NC(=O)CSc1nnc2c(n1)[nH]c1ccccc12,"inconclusive: 32.6 µM [falling, single point]",
COc1ccccc1N1CCN(c2ccc(Cl)nn2)CC1,"inconclusive: 0.58 µM [falling, full curve, poor fit]",
Cc1ccc2c(c1)C1(C=CC(=O)C=C1)CC(=O)N2C,,inactive: -5.12%
CC(C)C[C@@H](CO)N(Cc1ccccc1)S(=O)(=O)N(Cc1ccccc1)[C@H](CO)CC(C)C,"inconclusive: 3.66 µM [falling, partial curve, poor fit]",
CCCCCCCn1ccc(=N)cc1,active: 2.91 µM,
COc1ccc(C2CC(=O)CCN2S(=O)(=O)c2ccc(C)cc2)cc1 (configuration not stated),,inactive: 8.95%
CC(=O)Nc1nc2ccccc2n1Cc1ccccc1,,inactive: 1.06%
COc1ccc(S(N)(=O)=O)cc1C(=O)OCC(=O)N1CC(=O)Nc2ccccc21,,inactive: 1.93%
O=C(COCc1cc(-c2ccco2)on1)Nc1cc(Cl)ccc1O,"inconclusive: 20.6 µM [activator, single point]",
O=C(CCN1N=C(c2ccccc2)CCC1=O)NCC1COc2ccccc2O1 (configuration not stated),,inactive: 2.42%
O=C(O)c1cccc(-c2nc3ccccc3[nH]2)c1,,inactive: -8.88%
COc1ccc(-c2nc(SCC(=O)NC3CCCC3)c(-c3ccc(F)cc3)[nH]2)cc1OC,,inactive: -8.81%
CN1CCN(NC(=O)c2cccc(C(F)(F)F)c2)CC1,,inactive: -4.43%
COc1ccc2sc(-c3ccc(S(C)(=O)=O)cc3)c(C#Cc3cncn3C)c2c1,"inconclusive: 20.6 µM [falling, single point]",

Compound,Potency,"activity change, negative = inhibition"
CC(C)OC(=O)c1ccc(COC(=O)CNC(=O)c2ccco2)cc1,"inconclusive: 14.6 µM [falling, partial curve]",
CCCCCCC#Cc1ccc2c(c1)COc1c3ccccc3nn1-2,"inconclusive: 6.51 µM [activator, partial curve]",
CSCC(=O)N1CCc2ccc(NC(=O)c3ccccc3Cl)cc2C1,"inconclusive: 20.6 µM [activator, partial curve]",
CCCC(=O)Nc1ccc(NC(=O)c2cccc(OC)c2)cn1,"inconclusive: 25.9 µM [falling, partial curve, poor fit]",
CCOc1ccc(OCC)c(NC(=O)C2CCCN(S(=O)(=O)c3cccs3)C2)c1 (configuration not stated),"inconclusive: 14.6 µM [falling, partial curve, poor fit]",
O=C(Nc1ccc(S(=O)(=O)N2CCOCC2)cc1)c1ccc([N+](=O)[O-])cc1Cl,"inconclusive: 18.4 µM [falling, partial curve, poor fit]",
COc1ccc(C)cc1NC(=O)Cn1nc(N2CCN(c3ccccc3OC)CC2)ccc1=O,,inactive: -23.7%
O=C(N/N=C/C=C/c1ccco1)C(O)c1ccccc1 (configuration not stated),"inconclusive: 16.4 µM [activator, single point]",
Cc1ccc2nc(-c3ccccc3)cc(C(=O)NNC(=O)c3csc(N4CCOCC4)n3)c2c1,"inconclusive: 29.1 µM [falling, single point]",
NC(=S)NC1CC2CC1C1C=CCC21 (configuration not stated),,inactive: 18.8%
CCN(CC)c1nc(Nc2ccc(Cl)cc2)nc(OCC#N)n1,"inconclusive: 16.4 µM [falling, partial curve, poor fit]",
Cc1cc2c(c(=O)o1)C(c1ccc([N+](=O)[O-])o1)C(C#N)=C(N)O2 (configuration not stated),,inactive: -4.32%
COc1ccc(C2NN=C(c3ccc(C)cc3)S2)cc1 (configuration not stated),"inconclusive: 13 µM [falling, partial curve, poor fit]",
COc1ccccc1NC(=O)CSc1nnc(Cn2nnc(-c3ccccc3)n2)n1-c1ccccc1,"inconclusive: 29.1 µM [falling, single point]",
CN(C)c1cccc(-c2nnc(SCCCC#N)o2)c1,"inconclusive: 0.731 µM [activator, full curve, poor fit]",
COCCCNC(=O)c1ccc(Cn2c(=O)c3ccccc3n(Cc3cc(C)ccc3C)c2=O)cc1,"inconclusive: 23.1 µM [falling, partial curve, poor fit]",
COc1ccccc1NC(=O)CSc1nnc(COc2ccc(Cl)cc2)n1Cc1ccco1,"inconclusive: 25.9 µM [falling, single point]",
CCN(C(=O)c1cccs1)c1nc(-c2ccc(OC)cc2)cs1,"inconclusive: 18.4 µM [activator, partial curve]",
O=C(NCCCN1CCN(c2cccc(Cl)c2)CC1)C1(S(=O)(=O)c2ccc(Cl)cc2)CC1,"inconclusive: 32.6 µM [falling, single point]",
COc1ccc2nc(-c3cccc(F)c3)sc2c1,"inconclusive: 32.6 µM [falling, single point]",
CCc1ccc(-n2c(N3CCN(c4ccc(F)cc4)CC3)nc3ccccc3c2=O)cc1,,inactive: -24.4%
